The list shows a part of the results. Shown are side measurements of this screen, not its main read-out; they come without a call.

The assay is described as follows: Assay for Inhibitors of Influenza NS1 Protein Function: Influenza virus replication assay in MDCK cells infected with virus A/PR/8/34. Particulars: MDCK infected influenza A/PR/8/34, virus titer TCID50; measured here: MDCK cell viability; at 5 µM; stronger effect = higher value. From the text:
NIH Chemical Genomics Center [NCGC]
NIH Molecular Libraries Probe Centers Network [MLPCN]
Assay Submitter (PI): Daniel Engel
Influenza is a world-wide public health problem and emerging forms of the virus have the potential to cause a pandemic of equal or greater magnitude to the outbreaks recorded in 1918, 1957 or 1968. Vaccine development is proceeding and there also exist two classes of anti-influenza compounds. However these therapeutic modalities are neither fully effective nor widely enough available to fulfill global needs. In addition their potential usefulness against newly emergent strains is not known. Efforts are needed to develop novel agents against influenza virus, including broad-spectrum agents. Identification of small molecules that inhibit NS1 function either directly or by interfering with specific cellular pathways may be a key to increasing our defense against the virus.
We have miniaturized and optimized a cell based assay in which NS1 from influenza A is expressed in the budding yeast S. cerevisiae. NS1 is a multi-functional protein that counters the host innate immune response and facilitates viral versus cellular gene expression. Expression of NS1 causes a pronounced slow growth phenotype in yeast due to its intrinsic molecular activities. Small molecules that suppress the slow growth phenotype can be identified by a straightforward growth recovery assay using optical density (OD) as the measurement. The same yeast strain not expressing NS1 was used as positive control in the yeast growth recovery assay. The present experiment attempted to confirm the activity of compounds observed in the primary screen.
This assay confirms the activity of compounds from the primary screen by measuring their affect on viral replication.
Protocol details are given in Basu et al. J. Vir. 83(4):1881-1891 2009. […] All media and sera were from Invitrogen. […] Confluent cell monolayers were infected at a multiplicity of infection (MOI) of 0.1 for 48 h in the presence or absence of 5uM compound. Compounds were added at the beginning of infection and were present throughout the infection. After 48 h virus titers were determined by standard TCID50 analysis.
Take `COc1ccc(/C=C\C(=O)NCc2ccc3c(c2)cc(C)n3C)cc1OC`: the viability came to 97.8%.
The same measure for `O=C(Nc1ccc2c(c1)CCC2)c1cc(S(=O)(=O)Nc2ccc(F)cc2)c(Cl)cc1Cl`: 101%; for `CC(C)(C)c1nnc2sc(SCC(=O)c3ccc(Cl)cc3)nn2c1=O`: 101%; for `CCOC(=O)c1ccc(NC(=O)CSc2nnc(CCc3ccc(C)o3)n2-c2ccccc2)cc1`: 93%.
The same measure for `O=C(C[n+]1cccc(C(=O)Nc2ccccc2)c1)c1ccc([N+](=O)[O-])cc1`: 103%; for `CC(=O)Nc1ccc(Nc2ncnc3ccccc23)cc1`: 102%.
`CCCC12C(=O)C(C)(C(c3ccccc3)=C1c1ccccc1)C1C(=O)N(c3ccc(C)cc3)C(=O)C12` (stereo not given): the viability came out at 102%.
The same measure for `COc1ccc(C2/C=C\CN(S(=O)(=O)c3ccc4ccccc4c3)CC(=O)N2Cc2ccc(F)cc2)cc1` (stereo not given): 96.9%; for `COc1ccc(S(=O)(=O)N2CCCCC2)cc1NS(=O)(=O)c1cc(Cl)ccc1Cl`: 96.9%.
The same measure for `CCCC1(c2ccccc2)NC(=O)N(CC(=O)c2[nH]c(C)c(C(=O)OCC)c2C)C1=O` (stereo not given): 98.8%; for `CC(C)(C)NC(=O)c1ccccc1-c1nc2ccccc2s1`: 102%.
The same measure for `Cc1ccc(C(=O)N/N=C/c2cc(C)n(-c3ccc(Br)cc3)c2C)cc1[N+](=O)[O-]`: 104%; for `CCOC(=O)N1CCN(S(=O)(=O)N2CCCC(C(=O)NCCCN3CC(C)CC(C)C3)C2)CC1` (stereo not given): 98%.
On to `COc1ccc(-n2c(SCC(=O)N3CCCCC3)nc(O)cc2=O)cc1`, for which the viability came out at 96.4%.
The same measure for `Cc1c(Cl)cccc1NC(=O)CSc1nncn1-c1ccccn1`: 97.3%; for `Cc1ccc(-c2nnc(NCc3nc4ccccc4[nH]3)c3ccccc23)cc1S(=O)(=O)N(C)C`: 103%; for `Cc1ccc(-c2csc(N3CCC(NS(=O)(=O)c4ccc5c(c4)OCCO5)CC3)n2)cc1`: 106%.
The same measure for `O=C(CSc1nc(O)c(Cc2ccccc2)c(=O)[nH]1)N1CCOCC1`: 103%; for `O=C(Nc1ccc(Oc2ccc(NC(=O)c3ccco3)c(NC(=O)c3ccco3)c2)cc1)c1ccco1`: 103%.
Consider `Cc1ccc(S(=O)(=O)Nc2ccc3nc(-c4cccn4C)[nH]c3c2)cc1`, for which the viability is 100%.
Under `CCOc1cc(/C=N/NC(=O)COc2ccc(Cl)cc2)ccc1OS(=O)(=O)c1ccccc1` stands 99.2%; under `Cc1ccc(C)c(N2CCN(C(=O)C3CCN(S(=O)(=O)c4cccc5nsnc45)CC3)CC2)c1`, 103%.
For the molecule `COc1cc(/C=N/n2c(-c3ccc4c(c3)NC(=O)CO4)csc2=Nc2cccc(C)c2)ccc1O`, the viability worked out at 99.2%.
Under `CC1CCC2(CC1)NC(=O)N(Cc1nc(-c3ccccc3)no1)C2=O` (stereo not given) stands 99.2%.
Under `Cc1[nH]n(-c2cccc3ccccc23)c(=O)c1/C=N/c1sc2c(c1C#N)CCC2` stands 97.3%; under `CN1CCN(C2=Nc3ccccc3Oc3ccc(Cl)cc32)CC1`, 96.6%.
The same measure for `NC(=O)[C@H]1CC2(CC(c3cccc(NC(=O)CC(c4ccccc4)c4ccccc4)c3)=NO2)CN1C(=O)CC(c1ccccc1)c1ccccc1` (stereo not given in full): 95.7%.
In the case of `Cc1cccc(NC(=O)c2cc(NC(=O)c3ccccc3)ccc2N2CCCCC2)c1`, the viability was 101%.
`O=C(NCc1cc(C(F)(F)F)cc(C(F)(F)F)c1)C12CN(Cc3ccccc3)CC1C(c1cccc([N+](=O)[O-])c1)=NO2` (stereo not given): the viability is 94.6%.
For `Cc1ccc(C(=O)Nc2ccccc2C(=O)O)cc1S(=O)(=O)NC1CCCCC1`, the viability amounted to 99.5%.
As to `CC1(c2ccc3ccccc3c2)NC(=O)N(CC(=O)Nc2cccc(S(=O)(=O)N3CCOCC3)c2)C1=O` (stereo not given), the viability was found to be 101%.
The same measure for `CCOc1ccc(C2=Nc3ccccc3C(c3ccc(N4CCOCC4)cc3)=NN2)cc1`: 103%; for `Cc1ccc(/C=N/NC(=O)CN(Cc2ccccc2)S(=O)(=O)c2ccc3c(c2)OCCO3)cc1`: 105%.
Under `C=CCn1c(SCC2=C(C(=O)OCC)C(C)NC(=O)N2)nnc1C1CCCCC1` (stereo not given) stands 99.7%; under `COc1cc(NC(=O)CSc2nc3ccccc3n2-c2ccccc2)c(C)cc1[N+](=O)[O-]`, 103%.
The same measure for `Cc1ccc(S(=O)(=O)N2CCC(=O)N(C(COCc3ccc(Cl)cc3Cl)Cc3ccccc3)CC2)cc1` (stereo not given): 105%; for `CCc1ccc(NC(=O)CNC(=O)c2cn(-c3ccccc3OC)c(=O)c3ccccc23)cc1`: 98.9%.
For `Cc1ccc(N(CC(=O)N/N=C/c2ccco2)S(=O)(=O)c2ccccc2)cc1`, the viability stood at 99.7%.
Consider `CCOC(=O)C1CCN(C(=O)CS(=O)Cc2nc(-c3ccc(C)cc3)oc2C)CC1` (stereo not given), for which the viability came out at 103%.
With `O=C(CN1CCCCCC1=O)OCc1ncc(-c2ccccc2)o1`, the viability worked out at 103%.

Values taken from PubChem BioAssay AID504647 (National Center for Advancing Translational Sciences (NCATS), 2011).
